Laboratory results: PubChem BioAssay AID1259308 (NCATS, 2017)

Aim: 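Genes whose loss raises luciferase production in HEK293 cells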 (primary screen)
Cell system: human HEK293 embryonic kidney cells stably expressing firefly luciferase (HEK-CMV-Luc2-Hygro)
Reagent: single siRNA against human genes, 0.8 pmol siRNA per well
Time to read-out: 72 h
Read-out: 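Luciferase light (ONE-Glo) measured on one replicate plate set and viability (CellTiter-Glo) on the other, scaled to a negative control siRNA, with robust z-scores and luciferase per cell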
Reading the numbers: total luciferase, z-score and total luciferase, % of control: higher = more reporter protein produced
Active means: 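Active when the median/MAD z-score for overall luciferase is greater than 3; a gene was taken forward for validation with new siRNAs if at least two of its three siRNAs passed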
Meaning of the calls: active = raised luciferase; inactive = no rise
The whole screen tested about 59,000 reagents; this is an unselected part. About 1,510 of them (2.6%) were called active. 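Calls use total luciferase alone and ignore viability, so some active siRNAs may act by altering cell number.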 Unmarked entries are inactive. The numbers tell different reagents against one gene apart. Not all columns of the deposit are shown.

For LINC03122 #1, what was measured?
total luciferase, z-score: -0.224; total luciferase, % of control: 77.4

With LINC03122 #2, how do the results read?
total luciferase, z-score: 0.145; total luciferase, % of control: 84.8

How did the screen score LINC03122 #3?
total luciferase, z-score: -0.323; total luciferase, % of control: 75.5

For ATP6V0A1 #1, what does the deposit list?
total luciferase, z-score: 0.75; total luciferase, % of control: 96.8

Which result is listed for ATP6V0A1 #2?
total luciferase, z-score: -0.111; total luciferase, % of control: 79.7

With ATP6V0A1 #3, how do the results read?
total luciferase, z-score: 0.282; total luciferase, % of control: 87.5

For IFNLR1 #1, how do the results read?
total luciferase, z-score: 1.08; total luciferase, % of control: 103

With IFNLR1 #2, how do the results read?
total luciferase, z-score: -0.628; total luciferase, % of control: 69.4

What is on record for IFNLR1 #3?
total luciferase, z-score: 0.457; total luciferase, % of control: 91

What is on record for CSPG5 #1?
total luciferase, z-score: 0.156; total luciferase, % of control: 85

What is on record for CSPG5 #2?
total luciferase, z-score: 3.22 (active); total luciferase, % of control: 146

For CSPG5 #3, what does the deposit list?
total luciferase, z-score: 2.87; total luciferase, % of control: 139

How did the screen score GS1-24F4.2 #1?
total luciferase, z-score: -0.894; total luciferase, % of control: 64.1

What did the screen give for GS1-24F4.2 #2?
total luciferase, z-score: -0.909; total luciferase, % of control: 63.8

How did the screen score GS1-24F4.2 #3?
total luciferase, z-score: 1.57; total luciferase, % of control: 113

With IVL #1, what was measured?
total luciferase, z-score: 0.705; total luciferase, % of control: 95.9

With IVL #2, what does the deposit list?
total luciferase, z-score: -1.85; total luciferase, % of control: 45

With IVL #3, how do the results read?
total luciferase, z-score: -1.09; total luciferase, % of control: 60.2

With UBB #1, how do the results read?
total luciferase, z-score: 3.08 (active); total luciferase, % of control: 143

How did the screen score UBB #2?
total luciferase, z-score: 0.933; total luciferase, % of control: 100

For UBB #3, what was measured?
total luciferase, z-score: 1.14; total luciferase, % of control: 105

2 entries from above in another layout:
Gene,reagent,"total luciferase, z-score","total luciferase, % of control"
ATP6V0A1,1,0.75,96.8
ATP6V0A1,2,-0.111,79.7
